# Test results published in article PMC11206525, “Structural Design, Anticancer Evaluation, and Molecular Docking of Newly Synthesized Ni(II) Complexes with ONS-Donor Dithiocarbazate Ligands” (Molecules, 2024).
# Tested on: human breast cancer cell line MCF-7
# Experiment: MTT cytotoxicity assay, breast cancer MCF-7 cells
# Type: cell-based
# Conditions: SI = IC50 in normal cells (MCF-10A)/IC50 in tumor cells (MCF-7)
# Method: The measurement was performed using the MTT assay in cultures treated with increasing concentrations.
# The effect of the compounds applied to breast cancer MCF-7 cells and breast epithelial MCF-10A cells was evaluated by measuring 3-(4,5-dimethylthiazol-2-yl)-2,5-diphenyl tetrazolium bromide (MTT) (Invitrogen, Waltham, MA, USA). All compounds were diluted in dimethylsulfoxide (DMSO) with a final DMSO concentration of 0.01% (0.01 mL/100 mL × 100 = 0.01% means 0.01 mL of DMSO to 99.99 mL of water) in all groups and untreated controls. Cells were seeded in 96-well plates at a density of 5 × 10^3 cells per well and incubated with compounds diluted in serial concentrations ranging from 0.29 µM to 150 µM. After 24, 48, and 72 h at 37 °C and 5% CO2, 10 µL of MTT (5 mg/mL) was added to each well and incubated for 4 h at 37 °C. The supernatant was then removed, and 100 µL/well of DMSO was added to dissolve any deposited formazan. The optical density was measured at 570 nm using a microplate reader (DR-200B-NM_Kasuaki, Tokyo, Japan).
structure (smiles),measurement,setting,value
"C=CCSC1=NN=C(C)c2ccccc2[O][Ni]([P](c2ccccc2)(c2ccccc2)c2ccccc2)[S]1 [(1), [Ni(L^1)PPh3]]",SI (selectivity index),48 h,1.25
same,SI (selectivity index),72 h,1.57
